Laboratory results reported in the supplement of paper PMC7666118.
The other results are listed elsewhere or left out.

Protein sequences, listed by entry. Tags and fused reporters are not part of them. Lines headed by an entry give the natural chain unless they say otherwise; changes in a name come on top.
UniProt Q9P0P0: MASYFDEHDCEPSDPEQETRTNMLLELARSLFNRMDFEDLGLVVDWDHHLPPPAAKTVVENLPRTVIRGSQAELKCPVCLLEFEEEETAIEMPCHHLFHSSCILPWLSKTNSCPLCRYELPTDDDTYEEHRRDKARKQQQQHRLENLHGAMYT
UniProt P23443: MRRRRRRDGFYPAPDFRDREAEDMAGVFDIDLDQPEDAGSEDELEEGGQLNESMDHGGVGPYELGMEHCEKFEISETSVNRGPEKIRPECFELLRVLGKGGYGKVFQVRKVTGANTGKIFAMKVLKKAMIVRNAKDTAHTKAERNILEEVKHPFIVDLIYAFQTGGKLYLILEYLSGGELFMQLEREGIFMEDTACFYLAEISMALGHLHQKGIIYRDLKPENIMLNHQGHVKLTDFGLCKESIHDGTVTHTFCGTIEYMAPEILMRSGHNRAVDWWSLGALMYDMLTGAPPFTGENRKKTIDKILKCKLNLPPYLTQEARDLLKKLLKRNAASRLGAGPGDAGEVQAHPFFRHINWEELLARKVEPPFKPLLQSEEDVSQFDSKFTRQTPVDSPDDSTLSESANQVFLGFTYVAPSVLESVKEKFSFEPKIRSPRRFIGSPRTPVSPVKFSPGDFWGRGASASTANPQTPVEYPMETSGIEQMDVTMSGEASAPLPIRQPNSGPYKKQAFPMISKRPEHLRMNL
UniProt Q9Y3B8: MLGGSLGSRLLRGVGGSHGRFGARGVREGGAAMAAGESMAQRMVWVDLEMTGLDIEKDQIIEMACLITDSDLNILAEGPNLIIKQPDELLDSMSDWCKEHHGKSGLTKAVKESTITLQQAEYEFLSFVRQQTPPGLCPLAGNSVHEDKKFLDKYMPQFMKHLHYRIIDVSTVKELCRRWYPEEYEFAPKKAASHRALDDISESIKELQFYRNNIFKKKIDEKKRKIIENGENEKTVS
UniProt P56182: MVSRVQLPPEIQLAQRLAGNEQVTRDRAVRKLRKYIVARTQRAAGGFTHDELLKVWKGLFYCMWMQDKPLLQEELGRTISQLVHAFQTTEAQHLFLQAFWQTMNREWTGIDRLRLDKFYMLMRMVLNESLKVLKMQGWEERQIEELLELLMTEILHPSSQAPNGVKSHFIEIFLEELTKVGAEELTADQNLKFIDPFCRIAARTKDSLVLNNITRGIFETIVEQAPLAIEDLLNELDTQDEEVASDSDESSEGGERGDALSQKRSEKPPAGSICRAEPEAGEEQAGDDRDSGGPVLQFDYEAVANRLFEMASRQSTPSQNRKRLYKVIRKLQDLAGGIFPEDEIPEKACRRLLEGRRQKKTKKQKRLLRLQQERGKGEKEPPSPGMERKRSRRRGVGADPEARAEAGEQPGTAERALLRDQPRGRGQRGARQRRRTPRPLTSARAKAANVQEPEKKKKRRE
UniProt P78345: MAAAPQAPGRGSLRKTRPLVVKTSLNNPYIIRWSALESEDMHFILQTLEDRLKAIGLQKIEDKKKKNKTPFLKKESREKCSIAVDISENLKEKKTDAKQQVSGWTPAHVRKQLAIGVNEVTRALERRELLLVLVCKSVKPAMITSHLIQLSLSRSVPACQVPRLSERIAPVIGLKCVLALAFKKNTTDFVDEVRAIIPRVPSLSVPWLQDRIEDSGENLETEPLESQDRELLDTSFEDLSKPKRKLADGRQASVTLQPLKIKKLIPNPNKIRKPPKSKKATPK
UniProt Q9H0E3: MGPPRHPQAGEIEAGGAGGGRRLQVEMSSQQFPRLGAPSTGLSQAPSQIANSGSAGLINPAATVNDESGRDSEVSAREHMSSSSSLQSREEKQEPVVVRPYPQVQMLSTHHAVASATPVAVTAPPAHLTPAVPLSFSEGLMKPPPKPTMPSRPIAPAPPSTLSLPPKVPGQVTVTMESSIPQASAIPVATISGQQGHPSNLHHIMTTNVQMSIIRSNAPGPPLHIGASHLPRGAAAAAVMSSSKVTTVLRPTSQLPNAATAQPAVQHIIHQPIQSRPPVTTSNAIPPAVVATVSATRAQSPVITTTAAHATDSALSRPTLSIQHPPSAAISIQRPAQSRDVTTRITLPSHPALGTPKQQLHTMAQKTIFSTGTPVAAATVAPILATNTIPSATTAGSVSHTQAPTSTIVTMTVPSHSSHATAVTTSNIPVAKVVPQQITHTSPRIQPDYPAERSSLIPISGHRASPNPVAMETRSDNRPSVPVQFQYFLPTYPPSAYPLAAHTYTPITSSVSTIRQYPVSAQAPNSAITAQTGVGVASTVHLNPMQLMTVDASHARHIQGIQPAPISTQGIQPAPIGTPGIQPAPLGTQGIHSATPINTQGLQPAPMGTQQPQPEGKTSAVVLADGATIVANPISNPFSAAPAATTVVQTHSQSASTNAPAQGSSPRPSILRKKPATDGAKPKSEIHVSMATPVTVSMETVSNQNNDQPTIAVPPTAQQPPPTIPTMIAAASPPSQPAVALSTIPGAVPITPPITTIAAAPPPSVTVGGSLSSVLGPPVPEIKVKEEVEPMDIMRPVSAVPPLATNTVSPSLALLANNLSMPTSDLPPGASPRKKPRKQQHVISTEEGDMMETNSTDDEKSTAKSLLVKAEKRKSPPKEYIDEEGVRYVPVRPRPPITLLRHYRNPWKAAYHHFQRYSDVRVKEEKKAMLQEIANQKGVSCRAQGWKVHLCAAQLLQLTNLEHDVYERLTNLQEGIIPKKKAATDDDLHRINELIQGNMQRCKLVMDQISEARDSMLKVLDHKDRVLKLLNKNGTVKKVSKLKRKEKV
UniProt Q8N488: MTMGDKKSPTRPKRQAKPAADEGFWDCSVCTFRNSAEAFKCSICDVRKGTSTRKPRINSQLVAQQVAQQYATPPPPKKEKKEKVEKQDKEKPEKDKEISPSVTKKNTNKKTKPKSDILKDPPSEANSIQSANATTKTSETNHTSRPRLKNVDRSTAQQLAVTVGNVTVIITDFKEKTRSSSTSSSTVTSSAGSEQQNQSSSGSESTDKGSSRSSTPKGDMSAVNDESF
UniProt P18754: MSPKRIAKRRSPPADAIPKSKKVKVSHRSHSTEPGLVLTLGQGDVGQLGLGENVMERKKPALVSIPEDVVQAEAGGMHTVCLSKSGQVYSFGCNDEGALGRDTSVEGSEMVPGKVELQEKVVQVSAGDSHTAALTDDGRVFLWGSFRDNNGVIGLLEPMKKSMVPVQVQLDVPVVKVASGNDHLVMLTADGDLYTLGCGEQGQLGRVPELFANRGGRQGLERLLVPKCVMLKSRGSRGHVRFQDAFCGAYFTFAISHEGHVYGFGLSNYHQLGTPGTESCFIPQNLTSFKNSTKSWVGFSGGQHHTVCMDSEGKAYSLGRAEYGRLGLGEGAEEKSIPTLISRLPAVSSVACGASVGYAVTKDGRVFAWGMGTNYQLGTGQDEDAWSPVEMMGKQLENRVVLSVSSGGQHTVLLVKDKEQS
UniProt Q7L4I2: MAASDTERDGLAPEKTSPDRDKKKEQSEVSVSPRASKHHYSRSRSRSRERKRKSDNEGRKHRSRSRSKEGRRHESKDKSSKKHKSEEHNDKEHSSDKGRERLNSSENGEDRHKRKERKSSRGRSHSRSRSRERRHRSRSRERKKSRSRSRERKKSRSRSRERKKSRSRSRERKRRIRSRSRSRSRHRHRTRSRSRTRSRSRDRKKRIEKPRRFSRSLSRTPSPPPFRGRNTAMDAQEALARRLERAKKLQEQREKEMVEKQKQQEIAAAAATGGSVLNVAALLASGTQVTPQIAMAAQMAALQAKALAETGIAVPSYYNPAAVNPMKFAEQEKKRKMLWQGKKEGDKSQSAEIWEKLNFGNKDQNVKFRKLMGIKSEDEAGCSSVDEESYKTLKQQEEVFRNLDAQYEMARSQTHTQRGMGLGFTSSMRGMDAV
UniProt Q96D71: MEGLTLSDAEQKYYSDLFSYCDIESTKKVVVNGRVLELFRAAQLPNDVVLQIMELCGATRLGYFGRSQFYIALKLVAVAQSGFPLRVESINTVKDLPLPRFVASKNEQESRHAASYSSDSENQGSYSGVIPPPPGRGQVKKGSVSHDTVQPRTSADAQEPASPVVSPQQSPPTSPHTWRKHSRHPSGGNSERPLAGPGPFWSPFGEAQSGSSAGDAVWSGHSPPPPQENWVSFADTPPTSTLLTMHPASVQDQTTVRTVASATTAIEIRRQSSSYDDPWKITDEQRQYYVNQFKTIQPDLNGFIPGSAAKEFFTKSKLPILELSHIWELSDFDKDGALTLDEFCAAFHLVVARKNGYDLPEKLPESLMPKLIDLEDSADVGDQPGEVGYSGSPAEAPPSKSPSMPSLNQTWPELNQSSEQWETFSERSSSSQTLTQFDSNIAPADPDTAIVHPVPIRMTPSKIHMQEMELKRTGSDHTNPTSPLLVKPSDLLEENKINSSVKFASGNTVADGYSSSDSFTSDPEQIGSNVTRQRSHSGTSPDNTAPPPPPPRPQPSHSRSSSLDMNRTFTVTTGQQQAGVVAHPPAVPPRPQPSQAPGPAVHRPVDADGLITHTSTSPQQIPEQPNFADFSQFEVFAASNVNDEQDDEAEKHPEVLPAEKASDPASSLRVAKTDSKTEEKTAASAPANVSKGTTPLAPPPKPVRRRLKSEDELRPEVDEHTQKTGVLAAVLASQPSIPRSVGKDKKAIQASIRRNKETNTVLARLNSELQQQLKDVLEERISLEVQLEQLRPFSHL
UniProt Q9Y2P8: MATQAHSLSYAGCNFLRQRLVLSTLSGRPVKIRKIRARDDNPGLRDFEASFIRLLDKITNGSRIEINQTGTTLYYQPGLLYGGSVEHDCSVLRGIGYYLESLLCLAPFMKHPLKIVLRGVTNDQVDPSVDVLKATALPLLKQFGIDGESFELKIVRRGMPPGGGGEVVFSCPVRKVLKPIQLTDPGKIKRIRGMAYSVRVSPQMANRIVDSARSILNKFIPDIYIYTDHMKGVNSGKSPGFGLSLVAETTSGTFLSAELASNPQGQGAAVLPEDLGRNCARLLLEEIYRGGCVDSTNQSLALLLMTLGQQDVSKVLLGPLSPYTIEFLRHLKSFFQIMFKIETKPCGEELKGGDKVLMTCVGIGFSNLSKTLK
UniProt Q6NUM9: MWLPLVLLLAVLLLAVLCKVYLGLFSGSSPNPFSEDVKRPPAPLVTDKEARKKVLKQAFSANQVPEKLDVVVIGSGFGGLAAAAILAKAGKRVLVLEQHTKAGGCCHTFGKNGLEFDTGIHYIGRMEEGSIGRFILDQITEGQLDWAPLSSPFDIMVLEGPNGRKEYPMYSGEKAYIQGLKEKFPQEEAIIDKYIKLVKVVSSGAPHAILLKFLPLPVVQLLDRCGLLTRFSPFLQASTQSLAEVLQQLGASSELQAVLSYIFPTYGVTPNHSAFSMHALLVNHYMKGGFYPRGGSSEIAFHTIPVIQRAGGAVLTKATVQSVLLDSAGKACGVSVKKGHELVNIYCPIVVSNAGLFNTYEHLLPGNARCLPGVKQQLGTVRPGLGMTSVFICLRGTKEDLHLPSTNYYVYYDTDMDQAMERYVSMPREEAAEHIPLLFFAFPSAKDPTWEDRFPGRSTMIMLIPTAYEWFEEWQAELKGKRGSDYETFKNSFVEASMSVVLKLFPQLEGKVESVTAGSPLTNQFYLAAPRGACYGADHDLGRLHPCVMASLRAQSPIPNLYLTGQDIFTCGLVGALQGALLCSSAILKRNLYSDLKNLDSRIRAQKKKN
UniProt P35241, whole entry: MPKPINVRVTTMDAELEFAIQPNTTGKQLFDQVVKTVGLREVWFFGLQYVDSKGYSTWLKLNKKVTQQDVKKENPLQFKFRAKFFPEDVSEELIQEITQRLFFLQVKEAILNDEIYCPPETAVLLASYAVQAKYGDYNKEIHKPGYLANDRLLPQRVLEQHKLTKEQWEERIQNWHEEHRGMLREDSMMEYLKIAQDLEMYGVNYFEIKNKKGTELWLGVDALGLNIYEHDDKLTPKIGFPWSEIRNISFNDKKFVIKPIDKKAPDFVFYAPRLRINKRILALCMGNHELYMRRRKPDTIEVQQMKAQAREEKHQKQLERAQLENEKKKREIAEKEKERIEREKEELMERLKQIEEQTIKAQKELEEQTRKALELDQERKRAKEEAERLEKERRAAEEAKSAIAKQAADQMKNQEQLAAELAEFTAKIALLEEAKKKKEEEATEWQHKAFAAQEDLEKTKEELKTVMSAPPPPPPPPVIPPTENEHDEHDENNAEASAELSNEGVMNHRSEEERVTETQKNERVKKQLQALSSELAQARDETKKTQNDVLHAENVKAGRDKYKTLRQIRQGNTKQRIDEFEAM
UniProt Q9Y2Q5, whole entry: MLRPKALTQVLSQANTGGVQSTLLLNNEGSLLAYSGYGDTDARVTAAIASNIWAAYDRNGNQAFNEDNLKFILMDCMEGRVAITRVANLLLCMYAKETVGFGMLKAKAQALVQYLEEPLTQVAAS
UniProt P05109: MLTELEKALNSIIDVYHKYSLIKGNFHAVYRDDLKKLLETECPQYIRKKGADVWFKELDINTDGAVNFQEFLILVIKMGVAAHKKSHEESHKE

These targets were tested with COc1ccc(Cn2ccc3ccc(C(=O)NO)cc32)cc1 (assay: dose-dependent thermal stabilisation call (2D-TPP, DLPTP, 10% FDR) (binary (1 = stabilised)); higher = stabilised by the compound). Details: system: HL-60 intact cells; concentration range 0.04-10 µM.
For RPS15A (UniProt P62244), the “dose-dependent thermal stabilisation call” value was inactive: 0.
With RNF181 (UniProt Q9P0P0) the “dose-dependent thermal stabilisation call” value was inactive: 0.
For REXO4 (UniProt Q9GZR2), the “dose-dependent thermal stabilisation call” value was inactive: 0.
RPS6KB1 (UniProt P23443) was tested, and the “dose-dependent thermal stabilisation call” value was inactive: 0.
With RPL18A (UniProt Q02543) the “dose-dependent thermal stabilisation call” value was inactive: 0.
For REXO2 (UniProt Q9Y3B8), the “dose-dependent thermal stabilisation call” value was inactive: 0.
RP2 (UniProt O75695) was tested, and the “dose-dependent thermal stabilisation call” value was inactive: 0.
For RRP1 (UniProt P56182), the “dose-dependent thermal stabilisation call” value was inactive: 0.
RPP38 (UniProt P78345) was tested, and the “dose-dependent thermal stabilisation call” value was inactive: 0.
With RPS2 (UniProt P15880) the “dose-dependent thermal stabilisation call” value was inactive: 0.
In the case of RLTPR (UniProt Q6F5E8), the “dose-dependent thermal stabilisation call” value is reported as inactive: 0.
SAP130 (UniProt Q9H0E3) was tested, and the “dose-dependent thermal stabilisation call” value was inactive: 0.
In the case of RPS28 (UniProt P62857), the “dose-dependent thermal stabilisation call” value is reported as inactive: 0.
With RYBP (UniProt Q8N488) the “dose-dependent thermal stabilisation call” value was inactive: 0.
RCC1 (UniProt P18754) was tested, and the “dose-dependent thermal stabilisation call” value was inactive: 0.
For RSRC2 (UniProt Q7L4I2), the “dose-dependent thermal stabilisation call” value was inactive: 0.
For REPS1 (UniProt Q96D71), the “dose-dependent thermal stabilisation call” value was inactive: 0.
For RCL1 (UniProt Q9Y2P8), the “dose-dependent thermal stabilisation call” value was inactive: 0.
RBMX2 (UniProt Q9Y388) was tested, and the “dose-dependent thermal stabilisation call” value was inactive: 0.
In the case of RPL12 (UniProt P30050), the “dose-dependent thermal stabilisation call” value is reported as inactive: 0.
RPSA (UniProt P08865) was tested, and the “dose-dependent thermal stabilisation call” value was inactive: 0.
RHEB (UniProt Q15382) was tested, and the “dose-dependent thermal stabilisation call” value was inactive: 0.
In the case of RETSAT (UniProt Q6NUM9), the “dose-dependent thermal stabilisation call” value is reported as inactive: 0.
RGP1 (UniProt Q92546) was tested, and the “dose-dependent thermal stabilisation call” value was inactive: 0.
With RDX (UniProt P35241) the “dose-dependent thermal stabilisation call” value was inactive: 0.
ROBLD3 (UniProt Q9Y2Q5) was tested, and the “dose-dependent thermal stabilisation call” value was inactive: 0.
In the case of S100A8 (UniProt P05109), the “dose-dependent thermal stabilisation call” value is reported as inactive: 0.
